The test has as its system L1210 leukemia ip in BDF1 mice, survival T/C. The experiment in a line: NCI In Vivo Anticancer Drug Screen. Data for tumor model L1210 Leukemia (intraperitoneal) in B6D2F1 (BDF1) mice. To be noted: T/C endpoint: mean survival time, higher T/C = longer survival.
[1] abbreviates: dose: 300.0 mg/kg/injection, schedule: Q01DX001 (ip), vehicle: other.
[2] abbreviates: dose: 400.0 mg/kg/injection, schedule: Q04DX002 (ip), vehicle: Klucel (hydroxypropylcellulose) (HPC).
[3] abbreviates: dose: 200.0 mg/kg/injection, schedule: Q04DX003 (ip), vehicle: Klucel (hydroxypropylcellulose) (HPC).
Setting [4] is: dose: 400.0 mg/kg/injection, schedule: Q04DX003 (ip), vehicle: Klucel (hydroxypropylcellulose) (HPC).
Setting [5] is: dose: 400.0 mg/kg/injection, schedule: Q01DX001 (ip), vehicle: carboxymethylcellulose (CMC).
Setting [6] is: dose: 400.0 mg/kg/injection, schedule: Q01DX001 (ip), vehicle: saline.

The list does not hold the whole screen: it is rich in T/C values a quarter to a half above the control, in often repeated tests (any T/C) and in doses without a T/C. Further doses and runs are listed elsewhere. T/C: endpoint of the treated group in % of that of the vehicle group. Some entries give survivors of the animals treated and no T/C: the source files T/C as zero there, which appears to mark a toxic dose or a test without result, not a measured value. Some doses without a T/C left all or most animals alive at the check, yet need not have been tolerated: the source hardly ever lists a survival T/C far under the control, and the zero likely stands for such cases as well. Counts of survivors are from the toxicity check (mostly the fifth day) where no day follows; animals may have died later. Schedule codes are those of the source, taken here to give the interval after Q, in days (D) or hours (H), and the number of doses after X. Some entries hold several experiments; the results are listed from low to high. Some schedule codes hold Z or #, which are not explained here. Where survival is the endpoint, the PubChem record calls one and a half times the control and up active, and a quarter to a half above the control has no call in these data; cut-offs in other NCI protocols can differ. Some T/C values are followed by the survivors on the day toxicity was checked, most often the fifth; where none is given, no animal had died by that day.

As to `Clc1nnc(Cl)c(Cl)c1Cl`, the survivor count by setting is: (dose: 2.5 mg/kg/injection, schedule: Q04DX003 (ip), vehicle: acetone) 3 of 6; (dose: 5.0 mg/kg/injection, schedule: Q01DX001 (ip), vehicle: saline) 2 of 6; (dose: 10.0 mg/kg/injection, schedule: Q01DX001 (ip), vehicle: saline) 1 of 6; (dose: 16.0 mg/kg/injection, schedule: Q01DX015 (ip), vehicle: carboxymethylcellulose (CMC)) 2 of 6; (dose: 32.0 mg/kg/injection, schedule: Q01DX015 (ip), vehicle: carboxymethylcellulose (CMC)) 0 of 6.

With `NC(=S)N/N=C1/C(=O)c2cccc3cccc1c23`, the survivor count is reported as 3 of 6 (dose: 150.0 mg/kg/injection, schedule: Q01DX001 (ip), vehicle: other) and 1 of 6 under setting [1].

`CC1CN=C(c2ccc(NC(=O)c3ccc(NC(=O)c4ccc(C5=NCC(C)N5)cc4)cc3)cc2)N1` (stereo not given): the survivor count is recorded as 2 of 6 (dose: 15.0 mg/kg/injection, schedule: Q01DX Z (ip), vehicle: other); 0 of 6 (dose: 30.0 mg/kg/injection, schedule: Q01DX Z (ip), vehicle: other); 0 of 6 (dose: 60.0 mg/kg/injection, schedule: Q01DX Z (ip), vehicle: other); 0 of 6 (dose: 120.0 mg/kg/injection, schedule: Q01DX Z (ip), vehicle: other).

`CSc1nc2c(c(=O)[nH]1)C1C=C(C)CCC1C(C)(C)C2` (stereo not given): under setting [2], the survivor count is 0 of 3.

On to `CN(C)N=Nc1nn(C2CCCO2)cc1C(N)=O` (stereo not given), for which the T/C is 129 % of control (dose: 50.0 mg/kg/injection, schedule: Q01DX005 (ip), vehicle: saline); 141 % of control (dose: 100.0 mg/kg/injection, schedule: Q01DX005 (ip), vehicle: saline); 134 and 142 % of control (dose: 200.0 mg/kg/injection, schedule: Q01DX005 (ip), vehicle: saline).

As for `Cc1cccc(C[P+](C/C=C/c2ccccc2)(c2ccccc2)c2ccccc2)c1`, the survivor count (dose: 25.0 mg/kg/injection, schedule: Q04DX003 (ip), vehicle: Klucel (hydroxypropylcellulose) (HPC)) was 6 of 6; the survivor count (dose: 50.0 mg/kg/injection, schedule: Q04DX003 (ip), vehicle: Klucel (hydroxypropylcellulose) (HPC)) is 0 of 6 and 1 of 6; the survivor count (dose: 100.0 mg/kg/injection, schedule: Q04DX003 (ip), vehicle: Klucel (hydroxypropylcellulose) (HPC)) is given as 0 of 6; the survivor count under setting [3] was 0 of 6; the survivor count under setting [4] is 0 of 6.

As to `CCCCCCCN1CCCC(OC(=O)N(C)C)C1` (stereo not given), the survivor count (dose: 200.0 mg/kg/injection, schedule: Q04DX002 (ip), vehicle: saline) is recorded as 1 of 3 and the survivor count (dose: 400.0 mg/kg/injection, schedule: Q04DX002 (ip), vehicle: saline) is recorded as 0 of 3.

For the compound `CC(=O)OCCC/C(=C\c1ccc(Br)cc1)[N+](=O)[O-]`, under setting [5], the survivor count is recorded as 3 of 6.

On to `COc1cc2c(cc1O)C(Cc1ccc(OC)c(OC)c1)N(C)CC2` (stereo not given), for which the survivor count under setting [1] was 0 of 6.

`O=C(N/N=C/Cc1ccccc1)C(=O)N/N=C/Cc1ccccc1`: for the setting “dose: 200.0 mg/kg/injection, schedule: Q01DX009 (ip), vehicle: saline with Tween-80”, the survivor count is given as 1 of 3.

For `CCCCCCCCCCCCCCCCNCC(=O)Nc1ccc(S(=O)(=O)c2ccc(NC(=O)CNCCCCCCCCCCCCCCCC)cc2)cc1`, the survivor count is 1 of 6 (dose: 128.0 mg/kg/injection, schedule: Q01DX015 (ip), vehicle: carboxymethylcellulose (CMC)) and 2 of 6 (dose: 400.0 mg/kg/injection, schedule: Q01DX001 (ip), vehicle: other).

With `O=C(Nc1ccc(Cl)c(C(F)(F)F)c1)Oc1cccnc1`, the survivor count is recorded as 6 of 6 (dose: 50.0 mg/kg/injection, schedule: Q01DX009 (ip), vehicle: Klucel (hydroxypropylcellulose) (HPC)); 2 of 6 (dose: 200.0 mg/kg/injection, schedule: Q01DX009 (ip), vehicle: Klucel (hydroxypropylcellulose) (HPC)); 0 of 6 (dose: 400.0 mg/kg/injection, schedule: Q01DX009 (ip), vehicle: Klucel (hydroxypropylcellulose) (HPC)).

With `O=c1[nH]c2ccccc2nc1C(Cl)Cl`, the T/C runs as follows: under setting [3], 132 % of control; under setting [4], 145 % of control [2 of 3 alive].

For `N#CCCc1ccc(O)cc1`, the survivor count (dose: 400.0 mg/kg/injection, schedule: Q04DX003 (ip), vehicle: gum acacia) is given as 1 of 6.

As to `Cc1cc(Cl)ccc1OC(=O)Nc1cccc2ccccc12`, under “dose: 400.0 mg/kg/injection, schedule: Q04DX002 (ip), vehicle: carboxymethylcellulose (CMC)”, the survivor count is on record as 6 of 6.

With `O=S(=O)(Cl)OO/C=C\OOS(=O)(=O)Cl`, under setting [6], the survivor count was 0 of 6.

Turning to `O=[N+]([O-])c1cc(Cl)c(O)c(Cl)c1Cl`, the survivor count is, setting by setting: (dose: 200.0 mg/kg/injection, schedule: Q04DX003 (ip), vehicle: acetone) 4 of 6; (dose: 335.0 mg/kg/injection, schedule: Q01DX009 (ip), vehicle: saline) 2 of 6; (dose: 400.0 mg/kg/injection, schedule: Q01DX001 (ip), vehicle: acetone) 2 of 6.

On to `NNC(=O)C1CC2C=CCC(C2)C1` (stereo not given), for which the survivor count (dose: 400.0 mg/kg/injection, schedule: Q01DX001 (ip), vehicle: saline with Tween-80) is reported as 3 of 6.

For `CC[As](=O)(O)CCCc1ccccc1`, the survivor count runs as follows: (dose: 50.0 mg/kg/injection, schedule: Q01DX001 (ip), vehicle: Klucel (hydroxypropylcellulose) (HPC)) 0 of 3; (dose: 100.0 mg/kg/injection, schedule: Q01DX001 (ip), vehicle: Klucel (hydroxypropylcellulose) (HPC)) 0 of 3; (dose: 200.0 mg/kg/injection, schedule: Q01DX001 (ip), vehicle: Klucel (hydroxypropylcellulose) (HPC)) 0 of 3; (dose: 400.0 mg/kg/injection, schedule: Q01DX001 (ip), vehicle: Klucel (hydroxypropylcellulose) (HPC)) 0 of 3.

As for `c1ccc2c3c([nH]c2c1)C1CC2CCCCC2CN1CC3` (stereo not given), where the note is “dose: 300.0 mg/kg/injection, schedule: Q01DX001 (ip), vehicle: saline”, the survivor count is 0 of 6.

Turning to `CCCCCCCCCCCCCCCCCCN1CCSCC1`, the survivor count (dose: 400.0 mg/kg/injection, schedule: Q04DX002 (ip), vehicle: saline with Tween-80) is recorded as 3 of 3.

Regarding `CO[Si](OC)(OC)OC`, the survivor count (dose: 100.0 mg/kg/injection, schedule: Q01DX009 (ip), vehicle: saline with Tween-80) is listed as 3 of 6; the survivor count (dose: 200.0 mg/kg/injection, schedule: Q04DX003 (ip), vehicle: saline with Tween-80) is recorded as 0 of 6; the survivor count (dose: 400.0 mg/kg/injection, schedule: Q04DX003 (ip), vehicle: saline with Tween-80) is 0 of 6.

With `Cc1cc(C)[n+](C)c(C)c1`, the survivor count by setting is: (dose: 200.0 mg/kg/injection, schedule: Q04DX003 (ip), vehicle: saline) 3 of 6; (dose: 400.0 mg/kg/injection, schedule: Q04DX003 (ip), vehicle: saline) 1 of 6.

For `O=C(O)COc1ccccc1O`, the survivor count (dose: 400.0 mg/kg/injection, schedule: Q01DX009 (ip), vehicle: saline with Tween-80) is listed as 0 of 6.

Take `CC(=O)CC(=O)CF.CC(=O)CC(=O)CF.[Cu]`: the survivor count is, setting by setting: (dose: 6.0 mg/kg/injection, schedule: Q01DX001 (ip), vehicle: saline) 3 of 6; (dose: 50.0 mg/kg/injection, schedule: Q01DX001 (ip), vehicle: saline) 0 of 6; (dose: 100.0 mg/kg/injection, schedule: Q01DX001 (ip), vehicle: saline) 0 of 6; (dose: 200.0 mg/kg/injection, schedule: Q01DX001 (ip), vehicle: saline) 0 of 6.

Consider `CC(CO)(CO)N=Cc1ccccc1O.CC(CO)(CO)N=Cc1ccccc1O.[Co]`, for which the survivor count under setting [6] is reported as 0 of 6.

For the compound `CS(=O)(=O)c1nc2ccccc2[nH]1`, the survivor count under setting [2] is reported as 3 of 3.

For the compound `O=C(CCn1cccc1)c1csc2ccccc12`, the survivor count is, setting by setting: (dose: 100.0 mg/kg/injection, schedule: Q01DX001 (ip), vehicle: carboxymethylcellulose (CMC)) 2 of 4; under setting [5], 1 of 4.

With `CC(C)=CCc1c2c(c3occ(-c4ccc(O)cc4)c(=O)c3c1O)C=CC(C)(C)O2`, under setting [3], the survivor count is 6 of 6.

These data come from PubChem BioAssay AID248 (DTP/NCI, 2004).
